The other results are listed elsewhere or left out. Residues, ends and D or L forms follow the SMILES beside them. *: point of attachment. Cbz = O=C(OCc1ccccc1)*
Key:
Assay in all cases: log2 fold change, soluble protein after heating vs DMSO (PISA); higher = thermal stabilisation; K562 cells, 10 uM, 30 min; active = over 0.2 and 3.5 SD of the protein, either way, in both replicates (recomputed)
[1] = compound: C1COCCN1CCN2C3=CC=CC=C3N=C2NC(=O)C4=CC(=CC=C4)[N+](=O)[O-] [IRAK-1-4 Inhibitor I]
Summary of the method: (§1)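 Soluble protein was quantified by TMTpro 16plex LC-MS/MS after channel sums were equalised. It was obtained as the supernatant after 21,000xg for 90 min from pooled aliquots of K562 cells (2×10^6 cells/mL, 10 μM compound, 30 min) heated for 3 min across 48°C-58°C and extracted in PBS with 0.5% NP-40 at 4°C. Thermal stability values are relative to control samples and come from duplicates. They are given as log2 fold changes.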

Sequences of proteins named here, by UniProt entry; tags and fusion partners are left off. A change or cut given only in a name is not applied to a line headed by its entry.
UniProt Q1ED39: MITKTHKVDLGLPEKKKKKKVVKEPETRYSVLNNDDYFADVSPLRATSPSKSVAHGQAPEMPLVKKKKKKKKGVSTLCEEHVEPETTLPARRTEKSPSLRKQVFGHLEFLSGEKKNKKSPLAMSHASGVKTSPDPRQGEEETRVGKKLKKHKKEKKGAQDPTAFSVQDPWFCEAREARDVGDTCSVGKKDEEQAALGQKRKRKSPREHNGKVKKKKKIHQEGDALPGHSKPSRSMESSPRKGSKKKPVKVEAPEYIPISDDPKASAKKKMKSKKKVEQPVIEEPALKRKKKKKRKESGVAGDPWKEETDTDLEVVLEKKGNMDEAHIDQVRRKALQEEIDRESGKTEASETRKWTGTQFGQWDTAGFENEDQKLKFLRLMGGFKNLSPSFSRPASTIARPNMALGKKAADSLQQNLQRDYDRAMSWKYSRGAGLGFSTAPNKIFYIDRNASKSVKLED
UniProt Q9BY66, whole entry, looked up: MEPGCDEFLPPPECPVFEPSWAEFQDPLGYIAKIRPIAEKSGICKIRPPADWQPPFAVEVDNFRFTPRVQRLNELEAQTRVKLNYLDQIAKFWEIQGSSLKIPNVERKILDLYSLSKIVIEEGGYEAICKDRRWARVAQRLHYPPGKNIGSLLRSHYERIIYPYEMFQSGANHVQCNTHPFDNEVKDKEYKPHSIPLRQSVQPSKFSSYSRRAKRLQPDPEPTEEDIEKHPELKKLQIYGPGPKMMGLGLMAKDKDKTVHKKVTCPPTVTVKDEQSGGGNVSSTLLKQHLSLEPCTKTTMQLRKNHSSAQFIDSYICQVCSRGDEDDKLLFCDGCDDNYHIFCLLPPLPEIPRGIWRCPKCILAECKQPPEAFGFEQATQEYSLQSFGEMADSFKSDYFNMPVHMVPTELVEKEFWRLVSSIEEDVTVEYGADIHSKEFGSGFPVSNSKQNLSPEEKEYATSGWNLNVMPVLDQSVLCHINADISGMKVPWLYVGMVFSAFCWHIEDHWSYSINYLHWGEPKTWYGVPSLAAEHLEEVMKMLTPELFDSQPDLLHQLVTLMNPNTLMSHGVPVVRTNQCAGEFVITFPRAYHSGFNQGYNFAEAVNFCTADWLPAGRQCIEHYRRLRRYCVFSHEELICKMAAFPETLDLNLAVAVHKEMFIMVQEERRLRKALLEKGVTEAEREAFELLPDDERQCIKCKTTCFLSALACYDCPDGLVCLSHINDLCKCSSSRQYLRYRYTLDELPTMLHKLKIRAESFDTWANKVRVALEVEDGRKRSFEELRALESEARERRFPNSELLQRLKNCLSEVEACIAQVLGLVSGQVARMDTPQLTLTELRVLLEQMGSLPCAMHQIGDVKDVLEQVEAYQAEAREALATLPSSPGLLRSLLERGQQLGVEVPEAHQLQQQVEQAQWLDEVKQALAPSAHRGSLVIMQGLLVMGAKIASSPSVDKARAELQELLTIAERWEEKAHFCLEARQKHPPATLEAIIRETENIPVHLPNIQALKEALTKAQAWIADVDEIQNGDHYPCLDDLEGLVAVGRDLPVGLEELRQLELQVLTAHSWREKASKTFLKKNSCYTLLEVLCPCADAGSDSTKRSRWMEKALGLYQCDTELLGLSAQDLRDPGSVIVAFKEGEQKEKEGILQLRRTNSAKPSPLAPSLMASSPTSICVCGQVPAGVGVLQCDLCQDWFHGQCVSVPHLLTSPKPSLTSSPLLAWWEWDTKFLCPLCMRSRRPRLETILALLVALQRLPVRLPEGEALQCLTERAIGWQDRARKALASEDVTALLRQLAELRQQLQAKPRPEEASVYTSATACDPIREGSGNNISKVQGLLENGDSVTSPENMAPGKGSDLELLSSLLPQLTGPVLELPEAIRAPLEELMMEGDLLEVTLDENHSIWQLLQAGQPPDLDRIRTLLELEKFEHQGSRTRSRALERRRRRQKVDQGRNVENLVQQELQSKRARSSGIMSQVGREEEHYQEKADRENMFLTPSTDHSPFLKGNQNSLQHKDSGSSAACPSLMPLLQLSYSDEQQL
UniProt Q9BXK1: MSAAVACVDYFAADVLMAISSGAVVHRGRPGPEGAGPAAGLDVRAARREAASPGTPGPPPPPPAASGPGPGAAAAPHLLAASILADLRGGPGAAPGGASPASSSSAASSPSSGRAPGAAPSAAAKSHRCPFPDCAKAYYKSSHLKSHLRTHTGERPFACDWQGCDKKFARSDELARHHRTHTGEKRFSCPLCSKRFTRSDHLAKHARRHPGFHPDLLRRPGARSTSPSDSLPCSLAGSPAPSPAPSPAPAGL
UniProt P01042: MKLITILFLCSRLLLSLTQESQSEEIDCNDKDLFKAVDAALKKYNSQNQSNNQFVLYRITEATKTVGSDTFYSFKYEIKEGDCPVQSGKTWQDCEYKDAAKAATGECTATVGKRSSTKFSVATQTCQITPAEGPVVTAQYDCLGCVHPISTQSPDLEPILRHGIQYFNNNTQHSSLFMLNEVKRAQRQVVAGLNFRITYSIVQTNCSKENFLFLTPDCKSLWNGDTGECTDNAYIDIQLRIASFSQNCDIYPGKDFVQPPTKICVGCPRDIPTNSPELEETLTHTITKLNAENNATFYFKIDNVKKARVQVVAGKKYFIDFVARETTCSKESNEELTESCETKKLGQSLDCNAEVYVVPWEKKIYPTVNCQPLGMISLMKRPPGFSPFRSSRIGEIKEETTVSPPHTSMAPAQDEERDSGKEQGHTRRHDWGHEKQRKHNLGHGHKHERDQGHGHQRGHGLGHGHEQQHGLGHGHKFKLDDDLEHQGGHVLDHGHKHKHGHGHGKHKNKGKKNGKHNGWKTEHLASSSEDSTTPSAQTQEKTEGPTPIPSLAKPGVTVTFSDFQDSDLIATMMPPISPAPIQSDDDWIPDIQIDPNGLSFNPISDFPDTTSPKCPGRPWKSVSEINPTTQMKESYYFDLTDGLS
UniProt Q15058: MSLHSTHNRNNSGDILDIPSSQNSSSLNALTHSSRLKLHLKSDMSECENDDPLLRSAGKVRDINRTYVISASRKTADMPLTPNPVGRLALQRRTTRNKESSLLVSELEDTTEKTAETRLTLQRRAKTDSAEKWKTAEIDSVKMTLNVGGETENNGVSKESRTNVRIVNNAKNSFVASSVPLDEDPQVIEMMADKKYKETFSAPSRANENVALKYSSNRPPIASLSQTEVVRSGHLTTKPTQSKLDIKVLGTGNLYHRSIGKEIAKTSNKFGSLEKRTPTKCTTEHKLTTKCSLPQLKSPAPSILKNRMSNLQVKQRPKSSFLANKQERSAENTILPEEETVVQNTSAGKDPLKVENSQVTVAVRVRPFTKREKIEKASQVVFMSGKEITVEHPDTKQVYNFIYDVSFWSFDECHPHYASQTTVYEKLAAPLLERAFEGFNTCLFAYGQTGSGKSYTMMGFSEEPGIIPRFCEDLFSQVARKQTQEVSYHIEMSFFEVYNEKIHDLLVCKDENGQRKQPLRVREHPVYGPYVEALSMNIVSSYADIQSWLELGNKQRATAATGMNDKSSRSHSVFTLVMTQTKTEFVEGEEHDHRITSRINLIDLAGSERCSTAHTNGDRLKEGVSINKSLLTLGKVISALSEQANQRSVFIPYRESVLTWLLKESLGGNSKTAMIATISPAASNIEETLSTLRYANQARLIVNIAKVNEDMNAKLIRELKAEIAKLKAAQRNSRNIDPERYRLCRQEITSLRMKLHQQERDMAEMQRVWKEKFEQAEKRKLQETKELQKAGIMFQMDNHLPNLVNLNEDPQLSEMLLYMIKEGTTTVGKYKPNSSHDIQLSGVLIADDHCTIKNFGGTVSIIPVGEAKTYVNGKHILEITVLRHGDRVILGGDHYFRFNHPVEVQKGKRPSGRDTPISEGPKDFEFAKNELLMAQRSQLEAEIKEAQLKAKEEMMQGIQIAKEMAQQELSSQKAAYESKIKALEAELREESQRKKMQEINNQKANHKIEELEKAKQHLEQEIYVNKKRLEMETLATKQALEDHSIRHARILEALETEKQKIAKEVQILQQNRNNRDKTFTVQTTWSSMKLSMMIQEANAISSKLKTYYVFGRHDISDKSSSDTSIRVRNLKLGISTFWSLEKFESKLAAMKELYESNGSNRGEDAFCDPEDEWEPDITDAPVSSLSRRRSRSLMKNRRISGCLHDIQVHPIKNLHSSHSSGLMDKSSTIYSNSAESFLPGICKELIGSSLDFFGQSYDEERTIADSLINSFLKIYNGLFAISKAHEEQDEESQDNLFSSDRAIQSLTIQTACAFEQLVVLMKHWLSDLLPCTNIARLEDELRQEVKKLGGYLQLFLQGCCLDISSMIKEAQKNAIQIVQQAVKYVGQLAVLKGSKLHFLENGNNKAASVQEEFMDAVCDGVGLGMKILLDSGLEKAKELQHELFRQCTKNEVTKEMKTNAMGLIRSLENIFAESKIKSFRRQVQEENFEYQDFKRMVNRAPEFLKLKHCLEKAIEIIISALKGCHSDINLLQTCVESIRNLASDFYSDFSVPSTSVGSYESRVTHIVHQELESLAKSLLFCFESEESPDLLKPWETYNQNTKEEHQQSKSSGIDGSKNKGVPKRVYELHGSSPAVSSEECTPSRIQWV

[2] = compound: C=CC(=O)N1CCC[C@@H](n2nc(-c3ccc(Oc4ccccc4)cc3)c3c(N)ncnc32)C1 [ibrutinib]
Summary of the method: as §1

[3] = compound: CC(=O)c1cnc2ccc(-c3cc(Cl)c(O)c(Cl)c3)nc2c1N[C@H]1CC[C@H](CN(C)C)CC1
Summary of the method: as §1

[4] = compound: CC(C)(C)Cn1c(N)nc2ccc(-c3[nH]c(C(C)(C)C)nc3-c3ccc(F)cc3)nc21 [ralimetinib]
Summary of the method: as §1

[5] = compound: CC(C)C1=C2N=C(C=C(N2N=C1)NCC3=CC=CC=C3)NCCCCCCN
Summary of the method: as §1

[6] = compound: CC(C)C[C@@H](C=O)NC(=O)[C@H](CC(C)C)NC(=O)[C@H](CC(C)C)NC(=O)OCc1ccccc1
Summary of the method: as §1

[7] = compound: CC(C)N(C[C@H]1O[C@@H](n2cnc3c(N)ncnc32)[C@H](O)[C@@H]1O)[C@H]1C[C@@H](CCc2nc3cc(C(C)(C)C)ccc3[nH]2)C1 [pinometostat]
Summary of the method: as §1

[8] = compound: CC1=C(C(CC(=O)N1)C2=CC=C(C=C2)C(F)(F)F)C(=O)NC3=C(C=C4C(=C3)C=NN4)F
Summary of the method: as §1

[9] = compound: CC1=C(C2=C(C=C1)C(=O)C3=CC=CC=C3N2CCCN)C
Summary of the method: as §1

[10] = compound: CC1=C(C=C(C=C1)NC(=O)C2=CC(=CC=C2)N(C)C)NC(=O)C3=CC=C(C=C3)O
Summary of the method: as §1

[11] = compound: CC1=CC=C(C=C1)SC2=C3C=C(SC3=CN=C2)C(=O)N
Summary of the method: as §1

[12] = compound: CC1=NC(=CC=C1)C2=C(N=C(N2)C(C)(C)C)C3=CC4=NC=CN=C4C=C3
Summary of the method: as §1

[13] = compound: CCCS(=O)(=O)Nc1ccc(F)c(C(=O)c2c[nH]c3ncc(-c4ccc(Cl)cc4)cc23)c1F [vemurafenib]
Summary of the method: as §1

[14] = compound: CCCS(=O)(=O)Nc1ccc(F)c(C(=O)c2c[nH]c3ncc(Cl)cc23)c1F
Summary of the method: as §1

[15] = compound: CCCc1cc(C)[nH]c(=O)c1CNC(=O)c1cc(-c2ccnc(N3CCN(C)CC3)c2)cc2c1cnn2C(C)C
Summary of the method: as §1

[16] = compound: CCN(CC)Cc1ccc2cc(COC(=O)Nc3ccc(C(=O)NO)cc3)ccc2c1 [givinostat]
Summary of the method: as §1

[17] = compound: CCN(CCCOc1ccc2c(Nc3cc(CC(=O)Nc4cccc(F)c4)[nH]n3)ncnc2c1)CCOP(=O)(O)O [barasertib]
Summary of the method: as §1

[18] = compound: CC(C)(O)CC(=O)NCCn1ccc2ncnc(Nc3ccc(Oc4cccc(C(F)(F)F)c4)c(Cl)c3)c21
Summary of the method: as §1

[19] = compound: CC1=C(C=C(C=C1)NC(=O)C2=CC(=CC=C2)C(C)(C)C#N)NC3=CC4=C(C=C3)N=CN(C4=O)C
Summary of the method: as §1

[20] = compound: CCCCN(Cc1ccc(C(=O)NO)cc1)C(=O)Nc1ccccc1 [Nexturastat A]
Summary of the method: as §1

Measured: log2 fold change

KNOP1 (UniProt Q1ED39)
inactive: [1] 0.011 | [2] 0.098 | [3] 0.017 | [4] 0.181 | [5] 0.148 | [6] 0.017 | [7] 0.246 | [8] -0.206 | [9] -0.282 | [10] -0.006 | [11] 0.008 | [12] -0.022 | [13] -0.121 | [14] -0.065 | [15] -0.088 | [16] 0.279 | [17] 0.094

KDM5D isoform 3 (UniProt Q9BY66)
inactive: [1] -0.042 | [2] -0.222 | [3] -0.05 | [4] -0.083 | [18] -0.155 | [5] 0.036 | [6] 0.114 | [7] -0.047 | [9] -0.103 | [19] -0.132 | [10] -0.144 | [11] 0.036 | [12] 0.039 | [20] -0.08 | [13] 0.003 | [14] 0.128 | [15] -0.004 | [16] 0.014 | [17] 0.108

KLF16 (UniProt Q9BXK1)
inactive: [1] -0.064 | [2] -0.124 | [3] 0.037 | [5] -0.02 | [7] 0.184 | [8] 0.184 | [9] -0.275 | [19] -0.039 | [11] -0.073 | [12] -0.024 | [13] -0.146 | [14] -0.009 | [15] 0.031 | [16] 0.047 | [17] -0.157

KNG1 (UniProt P01042)
inactive: [1] 0.099 | [2] 0.254 | [3] 0.109 | [4] -0.096 | [5] 0.201 | [6] 0.06 | [7] -0.129 | [8] -0.052 | [9] -0.139 | [19] 0 | [10] 0.328 | [11] 0.019 | [12] 0.063 | [13] 0.059 | [14] -0.071 | [15] -0.222 | [16] -0.079 | [17] 0.036

KIF14 (UniProt Q15058)
inactive: [1] 0.084 | [2] 0.156 | [3] 0.034 | [18] -0.088 | [5] 0.047 | [7] 0.045 | [19] -0.144 | [11] -0.134 | [12] -0.131 | [20] 0.347 | [13] -0.112 | [14] 0.281 | [15] 0.16 | [16] 0.365 | [17] -0.016
